Normalized bacterial growth data for 44 molecules are collected here from the supplement of paper PMC10398353.

Counter-ions that a name gives are not always drawn. This is one part of the list. Single values of this set are uncertain.

The assay concerns Salmonella enterica serovar Typhimurium ST313 D23580. The assay can be described thus: normalized bacterial growth (OD600 20 h minus 0 h, interquartile-mean normalized) (fraction of plate interquartile mean); higher = more bacterial growth (less inhibition). Conditions: LPM (pH 5.8, low phosphate, low Mg2+), concentration: 10 µM, temperature: 37 °C.
`Cc1cc(C)c(/C=C2\C(=O)Nc3ccccc32)[nH]1`: the normalized bacterial growth was 0.919. For `CC(C)/C(O)=C1/C(=O)O[C@@H](c2ccoc2)[C@]2(C)C(O)[C@@H](O)[C@@]34OC5(C)OC67CC(C)(C(O)[C@]6(O)[C@@H](O)[C@]3(O5)C12)[C@H](CC(=O)O)[C@]74C` (some centres undefined), the normalized bacterial growth came out at 0.872.

With `CC1(C)CC[C@]2(C(=O)O)CC[C@]3(C)C(=CC[C@@H]4[C@@]5(C)CC[C@H](O)[C@@](C)(CO)[C@@H]5CC[C@]43C)[C@@H]2C1`, the normalized bacterial growth came to 1.35. Under `CCn1ccnc1CC1COc2ccccc2O1` (centres undefined) [Imiloxan hydrochloride] stands 1.07; under `COc1c(O)cccc1O`, 1.15; under `COC(=O)CC[C@@H](C)[C@H]1CC[C@H]2[C@@H]3[C@H](O)C[C@@H]4C[C@H](O)CC[C@]4(C)[C@H]3C[C@H](O)[C@]12C`, 0.983. With `Cc1cc(CC(=O)O)n(C)c1C(=O)c1ccc(Cl)cc1` the figure was 0.992.

The molecule `Cc1cc(CC(=O)O)n(C)c1C(=O)c1ccc(Cl)cc1` [Zomepirac sodium salt] displayed a normalized bacterial growth of 1.1.

In the case of `NCCNC(=O)c1ncsc1-c1cccc(F)c1` [Ro 41-1049 hydrochloride], the normalized bacterial growth is 1.21. In the case of `O=C(O)C1=CCCNC1` [Guvacine hydrochloride], the normalized bacterial growth is 0.805.

On to `CC12CCC(CC1)C(C)(C)O2`, for which the normalized bacterial growth came to 1.02. `CC(C)C[C@@H]1NC(=O)[C@H](CCCN)NC(=O)[C@H](C(C)C)NC(=O)[C@H](Cc2ccc(O)cc2)N[C@@H](CCC(=O)O)C(=O)N[C@@H](CC(N)=O)C(=O)[C@@H](Cc2ccccc2)NC(=O)[C@H](Cc2ccccc2)NC(=O)[C@@H]2CCCN2C(=O)[C@@H](Cc2ccccc2)NC1=O` yielded a normalized bacterial growth of 1.45. Under `C[C@H](CCC(=O)O)[C@H]1CC[C@H]2[C@@H]3CC[C@@H]4C[C@H](O)CC[C@]4(C)[C@H]3C[C@H](O)[C@]12C` stands 0.733.

`COc1ccc2cc(C(C)C(=O)O)ccc2c1` (centres undefined) showed a normalized bacterial growth of 0.645. `Nc1ncnc2c1nc(Sc1ccc(Cl)cc1)n2C1OC2COP(=O)(O)O[C@@H]2[C@@H]1O` (some centres undefined) [8-(4-Chlorophenylthio)-cAMP sodium] came in with a normalized bacterial growth of 1.25.

Molecule `CCC(=O)c1c(O)cc(O)cc1O` gave a normalized bacterial growth of 1.16. With `CC1Cc2ccccc2N1NC(=O)c1ccc(Cl)c(S(N)(=O)=O)c1` (centres undefined) the figure was 1.27; with `Nc1nc2[nH]c(=O)cnc2c(=O)[nH]1` [Isoxanthopterin], 1.1. In the case of `CC(C)(C)[C@]1(O)CCN2C[C@H]3c4ccccc4CCc4cccc(c43)[C@@H]2C1` [(+)-Butaclamol hydrochloride], the normalized bacterial growth was 0.523. On to `CC(=O)O[C@@H]1CC2C(C)(C)C(=O)C3OC3[C@]2(C)C2CC[C@@]3(C)[C@H](c4ccoc4)OC(=O)C4OC43[C@@]21C` (some centres undefined), for which the normalized bacterial growth was determined as 0.897. As to `CO/N=C(\C(=O)N[C@@H]1C(=O)N2C(C(=O)O)=C(COC(N)=O)CS[C@H]12)c1ccco1` [Cefuroxime sodium salt], the normalized bacterial growth came to 1.15. Regarding `CO/N=C(\C(=O)N[C@@H]1C(=O)N2C(C(=O)O)=C(COC(N)=O)CS[C@H]12)c1ccco1`, the normalized bacterial growth was found to be 0.945. Under `O=C(NCC(O)CO)c1c(I)c(C(=O)NCC(O)CO)c(I)c(N(CCO)C(=O)CO)c1I` (centres undefined) [Ioversol] stands 0.97; under `Nc1ccc(S(=O)(=O)Nc2ccnn2-c2ccccc2)cc1` [Sulfaphenazole], 1.03. Molecule `O=C1OCCN1/N=C/c1ccc([N+](=O)[O-])o1` [Furazolidone] showed a normalized bacterial growth of 1.41. As for `O=C1OCCN1/N=C/c1ccc([N+](=O)[O-])o1`, the normalized bacterial growth is 0.252. Under `NC(=O)c1ccc([N+](=O)[O-])cc1Cl` stands 0.974.

On to `CCOC(=O)Oc1c(OC)cc(C(=O)O[C@@H]2C[C@@H]3CN4CCc5c([nH]c6cc(OC)ccc56)[C@H]4C[C@@H]3[C@H](C(=O)OC)[C@H]2OC)cc1OC`, for which the normalized bacterial growth worked out at 0.815. With `Oc1ccc([C@@H]2CNCc3sccc32)cc1O` the figure was 1.02; with `O=C(/C=C/C(=O)Oc1ccccc1C(=O)O)Oc1ccccc1C(=O)O`, 1.27. With `Cc1ccc([N+](=O)[O-])cc1S(=O)(=O)N(C)C` the figure was 1.01; with `CC(C)C[C@H](NP(=O)(O)O[C@H]1O[C@H](C)[C@@H](O)[C@H](O)[C@@H]1O)C(=O)N[C@@H](Cc1c[nH]c2ccccc12)C(=O)O` [Phosphoramidon disodium], 1.11; with `CCC(=O)O[C@]1(C(=O)CCl)[C@@H](C)C[C@H]2[C@@H]3CCC4=CC(=O)C=C[C@]4(C)[C@@]3(F)[C@@H](O)C[C@@]21C` [Clobetasol propionate], 0.85. With `CCC(=O)O[C@]1(C(=O)CCl)[C@@H](C)C[C@H]2[C@@H]3CCC4=CC(=O)C=C[C@]4(C)[C@@]3(F)[C@@H](O)C[C@@]21C` the figure was 0.985; with `O=C1C[C@@H](c2ccc(O)cc2)Oc2cc(O)cc(O)c21` [Naringenine], 1.05. `O=C1C[C@@H](c2ccc(O)cc2)Oc2cc(O)cc(O)c21`: the normalized bacterial growth is 1.1. The molecule `c1ccc2c3c([nH]c2c1)C1C2CCC(C4CCCNC42)N1CC3` (centres undefined) [Nitrarine dihydrochloride] yielded a normalized bacterial growth of 0.47. With `CN1CC[C@]23c4ccccc4N[C@H]1[C@]21CCN(C)[C@H]3Nc2ccccc21` [Calycanthine] the figure was 0.954; with `COc1cc(-c2coc3cc(O[C@@H]4O[C@H](CO)[C@@H](O)[C@H](O)[C@H]4O)c(OC)c(O)c3c2=O)cc(O)c1OC`, 1.09; with `O=c1c(-c2ccc(O)cc2)coc2cc(O[C@@H]3O[C@H](CO)[C@@H](O)[C@H](O)[C@H]3O)ccc12`, 1.08. As for `O=c1c(O)c(-c2ccccc2)oc2cc(O)ccc12`, the normalized bacterial growth came to 0.973.

In turn, `COc1ccc(C2CNC(=O)C2)cc1OC1CCCC1` (centres undefined) [Rolipram] showed a normalized bacterial growth of 1.1.

With `CC(C)C[C@@H](NC(=O)[C@H](C)NC(=O)CNC(=O)[C@@H](NC=O)C(C)C)C(=O)N[C@@H](C)C(=O)N[C@@H](C(=O)N[C@H](C(=O)N[C@H](C(=O)N[C@@H](Cc1c[nH]c2ccccc12)C(=O)N[C@H](CC(C)C)C(=O)N[C@@H](Cc1c[nH]c2ccccc12)C(=O)N[C@H](CC(C)C)C(=O)N[C@@H](Cc1c[nH]c2ccccc12)C(=O)N[C@H](CC(C)C)C(=O)N[C@@H](Cc1c[nH]c2ccccc12)C(=O)NCCO)C(C)C)C(C)C)C(C)C`, the normalized bacterial growth stood at 1.18. With `CC[N+]1(C)C2CCC1CC(OC(=O)C1CCC(C(=O)OC3CC4CCC(C3)[N+]4(C)CC)(c3ccccc3)c3ccccc31)C2` (stereo not drawn) [beta- Belladonnine dichloroethylate] the figure was 0.915.
